PubChem BioAssay AID652259, Drosophila RNAi Screening Center, 2013
In all, the deposit lists about 22,000 reagents; shown is an unselected part of those that have a named target and a result. Of all reagents, 233 (1.1%) are marked active. 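Light values are raw, unnormalised plate reads; the ratio scores behind the reporter calls were not deposited.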 Not stated in the record: the amount of reagent, the time to read-out, the dose of the treatment.

Purpose: 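Knock-downs that push a Wingless-driven reporter up or down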 (primary screen)
System: Drosophila clone 8 imaginal disc epithelial cells
Reagent: long dsRNA against Drosophila genes
Conditions: pathway stimulated by co-transfected Wingless expression plasmid
Detection: 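Dual luciferase reads per well after Wingless plasmid stimulation: reporter firefly light and Renilla control light; activity is firefly divided by Renilla, a ratio not deposited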
Scale: firefly reporter light: higher = more Wg reporter light, before normalisation; Renilla control light: higher = more transfected or surviving cells
Active means: 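Strong candidates differ from their plate mean by at least two out of four per-plate statistical tests; weak candidates meet just one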
Meaning of the calls: active = candidate regulator (raises or lowers reporter); inactive = not a candidate

CG7183 [DRSC16210] | firefly reporter light, replicate 1 = 2132; firefly reporter light, replicate 2 = 5898; Renilla control light, replicate 1 = 1112; Renilla control light, replicate 2 = 1586; call = inactive
Ugt303B3 (UDP-glycosyltransferase family 303 member B3) [DRSC14199] | firefly reporter light, replicate 1 = 19814; Renilla control light, replicate 1 = 17563; call = inactive
stc (shuttle craft) [DRSC03620] | firefly reporter light, replicate 1 = 4224; Renilla control light, replicate 1 = 1539; call = inactive
ro (rough) [DRSC17046] | firefly reporter light, replicate 1 = 4707; Renilla control light, replicate 1 = 2025; call = inactive
Tep2 (Thioester-containing protein 2) [DRSC02679] | firefly reporter light, replicate 1 = 2076; firefly reporter light, replicate 2 = 6340; Renilla control light, replicate 1 = 435; Renilla control light, replicate 2 = 2669; call = inactive
Tep2 (Thioester-containing protein 2) [DRSC03451] | firefly reporter light, replicate 1 = 1990; firefly reporter light, replicate 2 = 8163; Renilla control light, replicate 1 = 326; Renilla control light, replicate 2 = 2903; call = inactive
Cyp305a1 (Cytochrome P450 305a1) [DRSC11126] | firefly reporter light, replicate 1 = 6395; Renilla control light, replicate 1 = 1712; call = inactive
Hacd1 (3-hydroxyacyl-CoA dehydratase 1) [DRSC02988] | firefly reporter light, replicate 1 = 5025; Renilla control light, replicate 1 = 1450; call = inactive
Tim8 [DRSC20291] | firefly reporter light, replicate 1 = 21029; Renilla control light, replicate 1 = 10358; call = inactive
EMC3 (ER membrane protein complex subunit 3) [DRSC02989] | firefly reporter light, replicate 1 = 2602; firefly reporter light, replicate 2 = 8288; Renilla control light, replicate 1 = 1210; Renilla control light, replicate 2 = 3837; call = inactive
Nepl18 (Neprilysin-like 18) [DRSC14879] | firefly reporter light, replicate 1 = 6179; Renilla control light, replicate 1 = 4377; call = inactive
CG5404 [DRSC15793] | firefly reporter light, replicate 1 = 12261; firefly reporter light, replicate 2 = 8.77e5; Renilla control light, replicate 1 = 4880; Renilla control light, replicate 2 = 4.79e5; call = inactive
CG12857 [DRSC06197] | firefly reporter light, replicate 1 = 4797; Renilla control light, replicate 1 = 2349; call = inactive
CG16953 [DRSC15167] | firefly reporter light, replicate 1 = 2375; firefly reporter light, replicate 2 = 7076; Renilla control light, replicate 1 = 949; Renilla control light, replicate 2 = 2103; call = inactive
sand (sandman) [DRSC07245] | firefly reporter light, replicate 1 = 2784; firefly reporter light, replicate 2 = 4380; Renilla control light, replicate 1 = 881; Renilla control light, replicate 2 = 2096; call = inactive
CG7483 [DRSC16249] | firefly reporter light, replicate 1 = 18280; Renilla control light, replicate 1 = 6368; call = inactive
CG7483 [DRSC22432] | firefly reporter light, replicate 1 = 6.22e5; firefly reporter light, replicate 2 = 6.28e5; Renilla control light, replicate 1 = 1.67e5; Renilla control light, replicate 2 = 1.77e5; call = inactive

2 entries from above, showing only “Renilla control light, replicate 1”:
EMC3 (ER membrane protein complex subunit 3) [DRSC02989]	1210
Nepl18 (Neprilysin-like 18) [DRSC14879]	4377
